# According to PubChem BioAssay AID1508600 (Functional Genomics Laboratory (NCATS/FGL), 2020):
# Screen size: about 53,000 sequences; about 3,700 (7%) were called active.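 How the source made its calls: active means gene knockdowns whose robust z-score for IL-1 alpha signal is at least 2 or at most -2, so actives lie on both sides; inactive means the rest.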 The list shows a part of the results.
# Assay: Components of the Cytosolic LPS Sensing Pathway: Gene Identification via Genome-wide siRNA Screen;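 further: robust z of the log signal after scaling to non-targeting control siRNA wells of the plate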
# Conditions: RAW264.7 macrophages, IL-1a HTRF, actives lie on both sides, screened at 100 nM (by protocol), cells primed 5 h with Pam3CSK4 first
# Procedure, shortened: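 Knockdown: 100 nM siRNA, 48h, RAW264.7. Stimulation: Pam3CSK4 5 h, then LipidA via TransIT-TKO 24 h. Output: supernatant IL-1a HTRF, negative-control-normalized, log robust z-score; viability by CellTiter-Glo.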
row,Sequence,z-score
1,GGCAAAGAGGCCAAAGCCATT against Zfp281,inactive: -1.44
2,GGGCAUCAUCUAUAAAAAGTT against Avil,inactive: -1.03
3,CCCAGGACGAGACUUAAAUTT against Cachd1,inactive: -0.252
4,CCUAUCAAAUUCAGAGGUUTT against Rinl,inactive: 0.294
5,GCAAAAAGGAGCGGUCCACTT against Plce1,inactive: 1.13
6,GGCAUUUGAGUGGACUGUUTT against Hirip3,inactive: 0.421
7,CCUUAGGAAUUCACAAUCUTT against Mcpt8,inactive: -0.504
8,GGAUUCCACAAUUUUUGUATT against Ncoa6,inactive: -0.399
9,GGUGUUAUCUGCAUCAUCATT against Cyp4f15,inactive: -1.42
10,GGACAGGAAAGUCAAGUACTT against Txnrd2,inactive: 0.282
11,GGUGUCAUUCCAUAGUUCUTT against Ap4m1,inactive: -0.48
12,GGUCUUUUGAGCCAAUGGUTT against 4930470P17Rik,inactive: -0.956
13,GCUUGAAGGUAUAAUUUCATT against Cldn12,inactive: 0.296
14,GCUUCAGUCGAAGUUCCUUTT against Zfp189,inactive: 1.23
15,CGAAUAAAGCUUCAUUGUGTT against Atp5k,inactive: 0.977
16,GGGUGUUGACAUAAAAAAUTT against Nsdhl,inactive: 0.702
17,GGUGAAUGUUGGAGACACATT against Fam131a,inactive: -1.54
18,GGUUGUUCCCGGAAGAAUCTT against Rtn4r,inactive: -0.874
19,GGUUUUGCCAAGGACGCAGTT against Ngf,inactive: 0.124
20,CCUUACUCGAUUAAAAGAATT against Eif3e,inactive: -1.38
21,GGGUUUCAACGGCUGUGACTT against Mef2d,active: -2.73
22,GGUCAUUUCUGUCUUCUACTT against Olfr323,inactive: 0.0432
23,GCAACAAGAGGGCAGAAUGTT against Olfr518,active: -2.22

row,Sequence,z-score
1,GCAACCAAAUCUAUUGUUCTT against Usp50,inactive: 0.881
2,CGCAAGAUUGCAUUGUGUATT against Clec4a1,inactive: 0.0252
3,CCUCGAGUUCGGAAACAGATT against Chd8,inactive: -1.06
4,GGAGAAUGCUGAAACACCUTT against Rgs7bp,inactive: -0.295
5,GGUCAUAGAAUUCAUGUCCTT against E230016K23Rik,inactive: -1.28
6,GGAAGAAUGGAGCUGUACATT against Pepd,inactive: -0.0255
7,GCAAGAACUCGCUGAUCCATT against Mtor,inactive: -1.31
8,GCAAACGUAUCAAGAGCAATT against Naca,inactive: 0.81
9,GGAUCCAAUCAGGAGAAAGTT against Cers4,inactive: -1.18
10,GCAGGUAAAAUACAGGAGCTT against Gdi2,inactive: 0.188
11,GAAUGCUCUGAGACUUUUATT against Cd300c2,active: -2.48
12,GGGCGUAGAAACAGCAACUTT against Ushbp1,active: -2.14
13,GCCUAAGAACAUGCUUUACTT against Cir1,inactive: 1.11
14,GGUCCUCUCAGACAUGAAGTT against Pagr1a,inactive: -0.237
15,CCCUCAAUGCUGGAAAACCTT against Nol4,inactive: -1.43
16,CCUUUAAAGGGCAUAUUCATT against Clip1,inactive: 1.46
17,GGAUUUCUUCUUAUGAUGATT against Khnyn,inactive: -1.21
18,GCUGUUUAAAGAUAUGUGGTT against Nfx1,inactive: -0.403
19,CCAUCCUAAGCAGAGUCACTT against Frg2f1,inactive: -0.446
20,GGCCACCCUUUCAGAAAUGTT against Fut9,inactive: -0.0689
21,GGGCUUUCUUGGUUUUAUCTT against Depp1,inactive: -0.377
22,GGCAGCCCUUUUGCUAAGATT against Neurod1,inactive: -0.0737
23,GGUGGAGGGUUUCAUCAAUTT against Alg3,inactive: -0.88

row,Sequence,z-score
1,GGUUGAACUCUUCUGGGAUTT against Pate14,inactive: 0.135
2,CCACCACUCUAUCAGAGGUTT against Evx1,inactive: -0.669
3,GGAUGGCGAUAAGAAGAUUTT against C3,inactive: -0.853
4,GGAUGAUGAGUUUUUCCAUTT against Tmem40,inactive: -0.286
5,GCUUCUAUGAUCGUACGGATT against Nid1,inactive: 0.812
6,GGAAGAGGUGCAGCAAAUUTT against Dcaf11,inactive: 0.437
7,GCGAAUAUCCAACCUAUCUTT against Itgb7,inactive: -0.687
8,GGUCAAAAGAAACAGGUGUTT against Sfi1,inactive: 0.13
9,GGCUUGCUAGAUAACAUCATT against Timm44,inactive: 0.744
10,CCCUUACUUAGUCUCCACUTT against Olig1,inactive: -0.025
11,GGAAUUUCACUAACCUUAGTT against Tert,inactive: 1.55
12,GGAUCGAGUUUGGUGUAGATT against Usp10,inactive: -1.39
13,GGUGAACACGUUUGUAAUGTT against Pcnx,inactive: 0.341
14,GGCAAAGCAACUUUAUGAATT against Aste1,inactive: -0.465
15,GGGCUAGAUGAAUUUUUGATT against Aplnr,inactive: -0.181
16,CGGGAACAAAUCUAAAAUGTT against Arhgap28,inactive: 0.723
17,CCGCCUACGUAAACACCAATT against Tnk2,inactive: -0.104
18,GGAUUUGGUGAUCCACUGGTT against Hecw1,inactive: 0.0465
19,GCCAGUUAUGAGCAACACCTT against Slc46a1,active: -2.14
20,GGUAAAGAAAUCCUUCAAATT against Syt6,active: 2.1
21,CGAUUAUCGGCCCAGCAAATT against Bmp1,inactive: 1.01
22,GGAAAAUCAAGUGCAAACUTT against Cep43,inactive: 0.122
23,GGAAGAUUAUUUUCUUACCTT against Dync2li1,inactive: 0.558

# Part of the list above, bar-delimited:
row | Sequence | z-score
4 | CCUAUCAAAUUCAGAGGUUTT against Rinl | inactive: 0.294
5 | GCAAAAAGGAGCGGUCCACTT against Plce1 | inactive: 1.13
6 | GGCAUUUGAGUGGACUGUUTT against Hirip3 | inactive: 0.421
7 | CCUUAGGAAUUCACAAUCUTT against Mcpt8 | inactive: -0.504
8 | GGAUUCCACAAUUUUUGUATT against Ncoa6 | inactive: -0.399
9 | GGUGUUAUCUGCAUCAUCATT against Cyp4f15 | inactive: -1.42
10 | GGACAGGAAAGUCAAGUACTT against Txnrd2 | inactive: 0.282
11 | GGUGUCAUUCCAUAGUUCUTT against Ap4m1 | inactive: -0.48
12 | GGUCUUUUGAGCCAAUGGUTT against 4930470P17Rik | inactive: -0.956
13 | GCUUGAAGGUAUAAUUUCATT against Cldn12 | inactive: 0.296
14 | GCUUCAGUCGAAGUUCCUUTT against Zfp189 | inactive: 1.23
15 | CGAAUAAAGCUUCAUUGUGTT against Atp5k | inactive: 0.977
16 | GGGUGUUGACAUAAAAAAUTT against Nsdhl | inactive: 0.702
17 | GGUGAAUGUUGGAGACACATT against Fam131a | inactive: -1.54
